Data reported in paper PMC5623693, “Rb‐independent E2F3 promotes cell proliferation and alters expression of genes involved in metabolism and inflammation” (FEBS Open Bio, 2017).
Results are given in words; binding and its absence hold for the method and conditions named. Binding seen in cells or lysates may run through a third protein. Some binding calls cover weakened binding; strength is not graded here.

Amino acid sequences for entries named in this document (tags omitted).
UniProt O35261: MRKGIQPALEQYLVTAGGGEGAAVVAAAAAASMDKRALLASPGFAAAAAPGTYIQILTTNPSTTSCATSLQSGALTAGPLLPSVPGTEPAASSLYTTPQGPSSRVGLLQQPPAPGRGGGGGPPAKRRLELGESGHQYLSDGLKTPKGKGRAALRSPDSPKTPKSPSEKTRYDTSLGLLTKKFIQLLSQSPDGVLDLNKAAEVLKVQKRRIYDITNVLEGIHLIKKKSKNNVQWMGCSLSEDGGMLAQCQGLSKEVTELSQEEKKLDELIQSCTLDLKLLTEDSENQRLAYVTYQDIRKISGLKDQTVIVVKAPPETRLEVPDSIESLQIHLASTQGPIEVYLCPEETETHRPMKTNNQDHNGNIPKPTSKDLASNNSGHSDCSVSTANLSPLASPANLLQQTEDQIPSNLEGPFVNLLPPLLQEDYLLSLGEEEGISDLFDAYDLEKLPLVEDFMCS
UniProt Q14209: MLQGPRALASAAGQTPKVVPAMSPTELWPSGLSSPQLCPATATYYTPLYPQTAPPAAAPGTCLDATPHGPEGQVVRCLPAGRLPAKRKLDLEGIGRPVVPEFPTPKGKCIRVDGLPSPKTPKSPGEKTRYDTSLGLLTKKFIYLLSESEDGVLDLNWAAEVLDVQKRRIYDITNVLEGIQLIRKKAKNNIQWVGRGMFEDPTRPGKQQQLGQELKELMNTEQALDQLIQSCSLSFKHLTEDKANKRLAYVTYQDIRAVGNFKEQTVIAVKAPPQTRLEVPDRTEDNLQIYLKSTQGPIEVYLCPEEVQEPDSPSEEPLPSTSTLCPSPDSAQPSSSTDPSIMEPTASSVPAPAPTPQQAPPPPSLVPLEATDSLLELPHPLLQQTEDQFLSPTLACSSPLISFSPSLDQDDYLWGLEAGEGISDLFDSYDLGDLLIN

T1: Rb (full-length, cotransfected) (UniProt P06400)
T1 sequence: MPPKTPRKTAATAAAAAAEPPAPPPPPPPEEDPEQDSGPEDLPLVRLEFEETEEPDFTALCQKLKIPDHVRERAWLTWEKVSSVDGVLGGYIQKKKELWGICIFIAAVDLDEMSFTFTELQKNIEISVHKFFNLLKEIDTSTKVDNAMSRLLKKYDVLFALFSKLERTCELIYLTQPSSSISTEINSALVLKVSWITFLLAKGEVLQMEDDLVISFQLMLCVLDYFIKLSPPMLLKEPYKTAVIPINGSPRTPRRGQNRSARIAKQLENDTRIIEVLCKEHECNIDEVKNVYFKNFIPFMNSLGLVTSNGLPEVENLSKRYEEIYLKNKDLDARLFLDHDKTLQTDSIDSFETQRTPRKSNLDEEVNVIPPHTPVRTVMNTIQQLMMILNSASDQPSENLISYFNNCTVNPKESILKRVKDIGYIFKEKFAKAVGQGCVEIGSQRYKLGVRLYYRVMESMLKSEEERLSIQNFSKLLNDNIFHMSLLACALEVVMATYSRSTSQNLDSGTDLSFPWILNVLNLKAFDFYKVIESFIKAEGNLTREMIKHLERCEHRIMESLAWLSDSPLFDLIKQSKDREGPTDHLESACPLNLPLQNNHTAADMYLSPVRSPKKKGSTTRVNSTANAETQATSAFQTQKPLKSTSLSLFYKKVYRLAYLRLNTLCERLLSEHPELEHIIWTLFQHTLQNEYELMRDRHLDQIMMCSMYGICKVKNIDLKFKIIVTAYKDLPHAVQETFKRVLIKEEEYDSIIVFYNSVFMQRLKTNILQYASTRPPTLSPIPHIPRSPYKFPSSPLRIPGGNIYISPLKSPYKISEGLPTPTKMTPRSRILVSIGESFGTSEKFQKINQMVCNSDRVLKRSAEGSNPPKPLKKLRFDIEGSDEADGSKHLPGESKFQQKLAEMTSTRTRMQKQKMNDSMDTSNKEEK


Assays:
[1] = molecular target: T1, Rb (full-length, cotransfected); assay: co-IP; HEK293T cells cotransfected with Rb and HA-tagged E2F; NP40 buffer lysate; Rb IP, western blot with anti-HA
[2] = molecular target: endogenous mouse E2F3 (WT MEFs) (mouse (endogenous in MEFs)) (UniProt O35261); assay: co-IP; endogenous proteins in WT or E2F3 LQ/LQ MEF whole cell lysates; E2F3 IP, immunoblot of Rb

| binding [1] | binding [2] | Molecule |
| --- | --- | --- |
| binds |  | HA-tagged full-length human E2F2 (WT) (from UniProt Q14209 1-437) |
|  | binds | endogenous mouse pRb (MEFs) (protein, UniProt P13405 1-921) MPPKAPRRAAAAEPPPPPPPPPREDDPAQDSGPEELPLARLEFEEIEEPEFIALCQKLKVPDHVRERAWLTWEKVSSVDGILEGYIQKKKELWGICIFIAAVDLDEMPFTFTELQKSIETSVYKFFDLLKEIDTSTKVDNAMSRLLKKYNVLCALYSKLERTCELIYLTQPSSALSTEINSMLVLKISWITFLLAKGEVLQMEDDLVISFQLMLCVVDYFIKFSPPALLREPYKTAAIPINGSPRTPRRGQNRSARIAKQLENDTRIIEVLCKEHECNIDEVKNVYFKNFIPFINSLGIVSSNGLPEVESLSKRYEEVYLKNKDLDARLFLDHDKTLQTDPIDSFETERTPRKNNPDEEANVVTPHTPVRTVMNTIQQLMVILNSASDQPSENLISYFNNCTVNPKENILKRVKDVGHIFKEKFANAVGQGCVDIGVQRYKLGVRLYYRVMESMLKSEEERLSIQNFSKLLNDNIFHMSLLACALEVVMATYSRSTLQHLDSGTDLSFPWILNVLNLKAFDFYKVIESFIKVEANLTREMIKHLERCEHRIMESLAWLSDSPLFDLIKQSKDGEGPDNLEPACPLSLPLQGNHTAADMYLSPLRSPKKRTSTTRVNSAANTETQAASAFHTQKPLKSTSLALFYKKVYRLAYLRLNTLCARLLSDHPELEHIIWTLFQHTLQNEYELMRDRHLDQIMMCSMYGICKVKNIDLKFKIIVTAYKDLPHAAQETFKRVLIREEEFDSIIVFYNSVFMQRLKTNILQYASTRPPTLSPIPHIPRSPYKFSSSPLRIPGGNIYISPLKSPYKISEGLPTPTKMTPRSRILVSIGESFGTSEKFQKINQMVCNSDRVLKRSAEGGNPPKPLKKLRFDIEGADEADGSKHLPAESKFQQKLAEMTSTRTRMQKQRMNESKDVSNKEEK |
